Our source for the binding values is paper PMC10115800, “Two assembly modes for SIN3 histone deacetylase complexes” (Cell Discovery, 2023).

The target of experiment [1] is T1, Pst2 with C-terminal 3× Flag-tag (S. pombe, UniProt O13919 1-1075).
T1 construct: Pst2, Sin3 homolog of S. pombe, organising subunit of the SIN3S complex; all five domains (PAH1/2/3, HID, HCR) are resolved; also called Pst2-Flag; Sin3 isoform Pst2; source: endogenous locus tagged, S. pombe; purified (ANTI-FLAG M2 resin, glycerol gradient); not shown: 3× Flag, C-terminal, kept
T1 sequence (looked up): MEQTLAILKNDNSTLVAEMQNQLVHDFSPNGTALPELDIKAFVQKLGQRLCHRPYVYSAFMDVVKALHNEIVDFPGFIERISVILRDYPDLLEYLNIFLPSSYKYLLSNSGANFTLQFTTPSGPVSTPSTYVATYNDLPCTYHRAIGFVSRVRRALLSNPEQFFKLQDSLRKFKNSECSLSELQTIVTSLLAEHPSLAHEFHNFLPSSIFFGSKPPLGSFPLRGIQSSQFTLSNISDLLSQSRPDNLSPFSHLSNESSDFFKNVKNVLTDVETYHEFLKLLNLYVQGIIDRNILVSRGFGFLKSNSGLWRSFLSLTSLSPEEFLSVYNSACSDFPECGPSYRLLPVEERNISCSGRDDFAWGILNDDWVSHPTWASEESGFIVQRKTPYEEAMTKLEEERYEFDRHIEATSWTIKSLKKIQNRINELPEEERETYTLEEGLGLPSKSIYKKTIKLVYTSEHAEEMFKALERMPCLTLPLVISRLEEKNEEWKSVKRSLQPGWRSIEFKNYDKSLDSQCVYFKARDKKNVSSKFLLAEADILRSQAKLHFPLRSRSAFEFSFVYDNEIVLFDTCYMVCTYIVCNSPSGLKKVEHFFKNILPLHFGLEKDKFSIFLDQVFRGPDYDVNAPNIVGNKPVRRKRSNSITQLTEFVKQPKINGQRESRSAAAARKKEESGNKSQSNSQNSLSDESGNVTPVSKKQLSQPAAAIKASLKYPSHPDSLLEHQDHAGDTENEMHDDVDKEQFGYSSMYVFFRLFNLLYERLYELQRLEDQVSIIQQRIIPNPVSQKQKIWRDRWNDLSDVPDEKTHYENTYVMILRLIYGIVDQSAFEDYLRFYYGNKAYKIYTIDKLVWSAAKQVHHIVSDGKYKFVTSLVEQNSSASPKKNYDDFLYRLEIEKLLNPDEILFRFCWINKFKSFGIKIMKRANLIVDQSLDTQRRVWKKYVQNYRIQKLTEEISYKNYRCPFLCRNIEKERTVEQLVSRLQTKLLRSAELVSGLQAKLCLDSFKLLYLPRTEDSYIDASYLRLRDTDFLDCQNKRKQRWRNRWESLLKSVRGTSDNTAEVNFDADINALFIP
Kind of experiment: cryo-EM structure; endogenous SIN3S complex purified from the Pst2-3×Flag S. pombe strain, cross-linked with 1 mM BS3; 20 mM HEPES pH 7.4, 50 mM NaCl, 2 mM DTT; 2.9 Å; both purified.

The target of experiment [2] is T2, histone deacetylase Clr6 (S. pombe) (UniProt O59702).
T2 sequence: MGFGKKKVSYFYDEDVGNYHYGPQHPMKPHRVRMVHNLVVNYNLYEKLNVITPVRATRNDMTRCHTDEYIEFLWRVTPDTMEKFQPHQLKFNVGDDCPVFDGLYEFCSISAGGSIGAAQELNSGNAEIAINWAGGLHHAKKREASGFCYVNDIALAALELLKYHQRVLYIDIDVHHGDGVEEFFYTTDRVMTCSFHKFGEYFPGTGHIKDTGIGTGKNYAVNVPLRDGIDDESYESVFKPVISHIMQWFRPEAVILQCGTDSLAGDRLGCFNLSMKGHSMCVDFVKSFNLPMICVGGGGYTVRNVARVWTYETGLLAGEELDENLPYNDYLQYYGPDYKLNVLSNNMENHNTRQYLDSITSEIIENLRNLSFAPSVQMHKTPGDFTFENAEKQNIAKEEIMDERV
Kind of experiment: cryo-EM structure; endogenous SIN3L complex purified from the Pst3-3×Flag S. pombe strain, cross-linked with 1 mM BS3; 20 mM HEPES pH 7.4, 50 mM NaCl, 2 mM DTT; 3.2 Å; both purified.

A further experiment concerns the target T3, Dep1 (S. pombe, UniProt Q9P7M1 1-491).
T3 construct: Dep1 of S. pombe, scaffold subunit of the SIN3L complex; Endogenous protein; source: endogenous, S. pombe; co-purified with Pst3-3×Flag (ANTI-FLAG M2 resin, glycerol gradient)
T3 sequence (looked up): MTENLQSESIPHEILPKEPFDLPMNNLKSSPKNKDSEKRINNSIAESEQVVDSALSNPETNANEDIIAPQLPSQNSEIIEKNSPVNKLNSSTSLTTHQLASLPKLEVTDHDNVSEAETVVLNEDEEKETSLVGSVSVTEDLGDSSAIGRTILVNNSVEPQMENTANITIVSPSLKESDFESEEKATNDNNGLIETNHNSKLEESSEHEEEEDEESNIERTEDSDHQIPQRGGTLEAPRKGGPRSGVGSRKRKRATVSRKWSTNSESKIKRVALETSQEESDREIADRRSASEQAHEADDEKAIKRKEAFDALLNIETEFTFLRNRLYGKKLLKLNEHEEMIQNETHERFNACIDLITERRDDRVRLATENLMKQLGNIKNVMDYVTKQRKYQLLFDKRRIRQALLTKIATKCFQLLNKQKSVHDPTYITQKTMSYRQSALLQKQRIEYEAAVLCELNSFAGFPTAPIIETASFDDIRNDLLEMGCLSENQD
The experiment is described as above.

The target of another experiment is T4, Rxt3 (S. pombe) (UniProt O94707).
T4 sequence: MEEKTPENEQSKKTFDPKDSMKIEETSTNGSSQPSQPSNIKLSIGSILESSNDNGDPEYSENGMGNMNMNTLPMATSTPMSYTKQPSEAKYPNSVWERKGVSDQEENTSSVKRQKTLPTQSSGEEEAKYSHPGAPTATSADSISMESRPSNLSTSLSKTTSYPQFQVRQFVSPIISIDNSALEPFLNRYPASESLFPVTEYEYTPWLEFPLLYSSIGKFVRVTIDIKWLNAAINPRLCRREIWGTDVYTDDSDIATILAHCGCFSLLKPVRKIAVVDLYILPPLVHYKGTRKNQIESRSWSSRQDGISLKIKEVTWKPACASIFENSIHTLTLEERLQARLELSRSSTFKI
The experiment is described as above.

In experiment [3] the target is T5, Pst3 with C-terminal 3× Flag-tag (S. pombe, UniProt O74755 1-1154).
T5 construct: Pst3, Sin3 homolog of S. pombe, subunit of the SIN3L complex; PAH3, HID and HCR are resolved in the model; Endogenous protein; also called Pst3-Flag; Sin3 isoform Pst3; source: endogenous locus tagged, S. pombe; purified (ANTI-FLAG M2 resin, glycerol gradient); not shown: 3× Flag, C-terminal, kept
T5 sequence (looked up): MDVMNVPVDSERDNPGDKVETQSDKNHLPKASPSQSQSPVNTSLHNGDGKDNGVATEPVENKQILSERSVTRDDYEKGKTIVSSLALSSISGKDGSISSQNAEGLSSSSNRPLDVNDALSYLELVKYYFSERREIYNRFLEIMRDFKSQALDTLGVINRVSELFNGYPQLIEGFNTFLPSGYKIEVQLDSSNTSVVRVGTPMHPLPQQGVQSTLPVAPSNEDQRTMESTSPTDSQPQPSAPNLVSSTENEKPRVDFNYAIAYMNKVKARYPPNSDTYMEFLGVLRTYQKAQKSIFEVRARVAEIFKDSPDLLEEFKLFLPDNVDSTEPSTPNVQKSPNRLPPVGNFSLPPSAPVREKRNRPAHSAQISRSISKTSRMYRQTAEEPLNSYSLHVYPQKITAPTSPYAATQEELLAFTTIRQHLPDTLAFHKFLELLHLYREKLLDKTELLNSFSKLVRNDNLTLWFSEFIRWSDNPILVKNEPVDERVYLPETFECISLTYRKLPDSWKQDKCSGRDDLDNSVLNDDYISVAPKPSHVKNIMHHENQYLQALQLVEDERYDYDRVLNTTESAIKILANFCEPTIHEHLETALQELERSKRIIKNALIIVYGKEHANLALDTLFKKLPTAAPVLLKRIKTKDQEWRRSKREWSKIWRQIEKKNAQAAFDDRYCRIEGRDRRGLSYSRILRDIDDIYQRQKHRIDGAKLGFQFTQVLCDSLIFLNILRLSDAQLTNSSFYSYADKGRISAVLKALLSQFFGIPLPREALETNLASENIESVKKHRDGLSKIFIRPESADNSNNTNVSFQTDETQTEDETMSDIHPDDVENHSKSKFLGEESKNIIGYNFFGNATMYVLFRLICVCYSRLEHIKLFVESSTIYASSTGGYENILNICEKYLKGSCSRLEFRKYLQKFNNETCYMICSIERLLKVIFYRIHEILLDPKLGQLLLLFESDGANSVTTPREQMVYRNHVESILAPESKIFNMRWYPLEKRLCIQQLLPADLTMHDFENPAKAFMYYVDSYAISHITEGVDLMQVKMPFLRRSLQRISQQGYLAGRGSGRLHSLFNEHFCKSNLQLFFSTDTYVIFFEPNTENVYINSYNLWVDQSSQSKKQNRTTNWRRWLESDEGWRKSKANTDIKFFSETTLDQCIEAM
The experiment is described as above.

The next experiment concerns the target T6, Png2 (S. pombe) (UniProt O74736).
T6 sequence: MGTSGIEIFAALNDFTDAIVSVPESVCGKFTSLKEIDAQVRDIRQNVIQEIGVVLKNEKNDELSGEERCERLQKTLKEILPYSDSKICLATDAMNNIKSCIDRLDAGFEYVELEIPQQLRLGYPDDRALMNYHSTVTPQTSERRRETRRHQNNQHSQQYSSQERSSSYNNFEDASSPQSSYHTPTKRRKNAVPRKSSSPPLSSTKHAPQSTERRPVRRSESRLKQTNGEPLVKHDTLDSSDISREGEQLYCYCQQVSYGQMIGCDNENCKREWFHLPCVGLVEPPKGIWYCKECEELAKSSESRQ
The description is as above.

The target of a further experiment is Cph2 (S. pombe). The experiment in a line: cryo-EM structure; endogenous SIN3S complex purified from the Pst2-3×Flag S. pombe strain, cross-linked with 1 mM BS3; 20 mM HEPES pH 7.4, 50 mM NaCl, 2 mM DTT; 2.9 Å; both purified.
The next experiment has as its target Cph1 (S. pombe). The description is as above.

These are yes or no findings as the source states them, for the method shown. A result given as binding can be weak or reduced; the word gives no strength. For part of these data: Sequences can lack the tags named with a protein.

Consider Cph1 (S. pombe), for which the binding result in experiment [1] is “binds”.

With Cph2 (S. pombe), the binding result in experiment [1] was “binds”.

Regarding Rxt2 (S. pombe), the binding entry (in experiment [2]; with Dep1; with Rxt3 (S. pombe); in experiment [3]; with Png2 (S. pombe)) was “binds” each time.

B1: Eaf3 (protein, UniProt O13953 1-337)
chain: MAVSYKVNERVLCFHGPLLYEAKIVDTEMKGDVTTYLIHYKGWKNSWDEWVEQDRILQWTEENLKTQKELKNAAISTRQKPTSKKSASSTSKHDSTGVKTSGKRSRESSTVTVDGDSHELPSRIKTQKSESPIPQQVKRDGTTDAKNEETTKPENNEKDDFEEEPPLPKHKISVPDVLKLWLVDDWENITKNQQLIAIPRNPTVRAAIAAFRESKISHLNNEIDVDVFEQAMAGLVIYFNKCLGNMLLYRFERQQYLEIRQQYPDTEMCDLYGVEHLIRLFVSLPELIDRTNMDSQSIECLLNYIEEFLKYLVLHKDEYFIKEYQNAPPNYRSLVGV
Take B1: the binding result with Cph2 (S. pombe) and with Cph1 (S. pombe) was “binds” in each case.
